Laboratory results from patent US20240293416A1, “TREATMENT OF LIVER DISORDERS WITH A THR-ß AGONIST” (Terns Pharmaceuticals, Inc., priority 2021, published 2024).
The name of at least one read-out is uncertain.

Experiment: Solubilizer compatibility in formulation study
Assay type: physicochemical
Conditions: co-formulation
From the text: The level of SLS between 1.5% to 5.0% w/w was investigated.

SMILES: N#Cc1nn(-c2cc(Cl)c(Oc3n[nH]c(=O)c4ccccc34)c(Cl)c2)c(=O)[nH]c1=O [Compound 1, 2-(3,5-dichloro-4-((4-oxo-3,4-dihydrophthalazin-1-yl)oxy)phenyl)-3,5-dioxo-2,3,4,5-tetrahydro-1,2,4-triazine-6-nitrile]
- degradation with solubilizer poloxamer 188: significant degradation
